Conditions in all cases: yeast three-hybrid, YBZ-1, SC-Leu-His + 0.5 mM 3-AT, 4 days
The target of assay [1] is T1, PUM1 PUF domain R6-DFE N1043D + Y1044F + Q1047E (UniProt Q14671).
T1 sequence: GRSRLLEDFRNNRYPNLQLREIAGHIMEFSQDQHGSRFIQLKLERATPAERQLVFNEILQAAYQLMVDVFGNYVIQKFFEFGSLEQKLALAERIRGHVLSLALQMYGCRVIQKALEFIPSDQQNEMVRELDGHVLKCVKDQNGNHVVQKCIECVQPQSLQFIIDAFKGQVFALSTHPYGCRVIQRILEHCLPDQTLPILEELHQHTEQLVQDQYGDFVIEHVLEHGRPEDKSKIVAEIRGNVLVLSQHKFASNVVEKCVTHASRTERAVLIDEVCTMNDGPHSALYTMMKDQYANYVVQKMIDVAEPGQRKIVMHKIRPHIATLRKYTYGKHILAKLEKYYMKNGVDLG

In assay [2] the target is T2, PUM1 PUF domain R6-FRV N1043F + Y1044R + Q1047V (UniProt Q14671).
T2 sequence: T1 sequence with D216F, F217R, E220V

In assay [3] the target is T3, PUM1 PUF domain R6-GFC N1043G + Y1044F + Q1047C (UniProt Q14671).
T3 sequence: T1 sequence with D216G, E220C

Assay [4] deals with T4, PUM1 PUF domain R6-LWR N1043L + Y1044W + Q1047R (Homo sapiens) (UniProt Q14671).
T4 sequence: T1 sequence with D216L, F217W, E220R

Assay [5] concerns the target T5, PUM1 PUF domain R6-SFS N1043S + Y1044F + Q1047S (Homo sapiens) (UniProt Q14671).
T5 sequence: T1 sequence with D216S, E220S

Assay [6] has as its target T6, PUM1 PUF domain R6-SHE N1043S + Y1044H + Q1047E (UniProt Q14671).
T6 sequence: T1 sequence with D216S, F217H

In assay [7] the target is T7, PUM1 PUF domain R6-TFA N1043T + Y1044F + Q1047A (Homo sapiens) (UniProt Q14671).
T7 sequence: T1 sequence with D216T, E220A

Assay [8] concerns the target T8, PUM1 PUF domain R6-TFS N1043T + Y1044F + Q1047S (Homo sapiens) (UniProt Q14671).
T8 sequence: T1 sequence with D216T, E220S

Assay [9] addresses T9, PUM1 PUF domain R6-WYG N1043W + Q1047G (UniProt Q14671).
T9 sequence: T1 sequence with D216W, F217Y, E220G

Assay [10] has as its target T10, PUM1 PUF domain R6-WYR N1043W + Q1047R (Homo sapiens) (UniProt Q14671).
T10 sequence: T1 sequence with D216W, F217Y, E220R

The target in assay [11] is T11, PUM1 PUF domain R3-APS C935A + R936P + Q939S (Homo sapiens) (UniProt Q14671).
T11 sequence: T1 sequence with C108A, R109P, Q112S, D216N, F217Y, E220Q

The target of assay [12] is T12, PUM1 PUF domain R3-ASY C935A + R936S + Q939Y (UniProt Q14671).
T12 sequence: T1 sequence with C108A, R109S, Q112Y, D216N, F217Y, E220Q

In assay [13] the target is T13, PUM1 PUF domain R3-DRL C935D + Q939L (UniProt Q14671).
T13 sequence: T1 sequence with C108D, Q112L, D216N, F217Y, E220Q

In assay [14] the target is T14, PUM1 PUF domain R3-ESL C935E + R936S + Q939L (UniProt Q14671).
T14 sequence: T1 sequence with C108E, R109S, Q112L, D216N, F217Y, E220Q

Assay [15] addresses T15, PUM1 PUF domain R3-TGQ C935T + R936G (UniProt Q14671).
T15 sequence: T1 sequence with C108T, R109G, D216N, F217Y, E220Q

For assay [16], the target named is T16, PUM1 PUF domain R3-TRG C935T + Q939G (Homo sapiens) (UniProt Q14671).
T16 sequence: T1 sequence with C108T, Q112G, D216N, F217Y, E220Q

The target in assay [17] is T17, PUM1 PUF domain R3-VHW C935V + R936H + Q939W (Homo sapiens) (UniProt Q14671).
T17 sequence: T1 sequence with C108V, R109H, Q112W, D216N, F217Y, E220Q

The target of assay [18] is T18, PUM1 PUF domain R3-VRH C935V + Q939H (UniProt Q14671).
T18 sequence: T1 sequence with C108V, Q112H, D216N, F217Y, E220Q

For assay [19], the target named is T19, PUM1 PUF domain R3-VRN C935V + Q939N (Homo sapiens) (UniProt Q14671).
T19 sequence: T1 sequence with C108V, Q112N, D216N, F217Y, E220Q

Assay [20] addresses T20, PUM1 PUF domain R3-VRW C935V + Q939W (UniProt Q14671).
T20 sequence: T1 sequence with C108V, Q112W, D216N, F217Y, E220Q

Changes are numbered by the printed parent chain. This is one part of the list. For some of these results: At the low end of the ranking the order means little.

Consider “GGCUAGAACUAGUGGAUCCCCCGGCGCCCGGCGGCUCGAGCCCGGGUAAGUGAAAAUAGUCUGCAUGCCGCCGGGCGCCAUGCCUGCAGGUCGACUCUAGAAAACAUG”, for which the binding signal (log2 enrichment (interaction score)) in [1] was -4.7; in [2] it was under -6.95; in [3], under -7.83; in [4], -3.8; in assay [5] it was -0.58; in assay [6], -3.11. The binding signal (log2 enrichment (interaction score)) in assay [7] was 1.23; in [8], -2.5; in assay [9], -6.77; in assay [10], -0.26.
As to “GGCUAGAACUAGUGGAUCCCCCGGCGCCCGGCGGCUCGAGCCCGGGUAAGUGUAAUUAGUCUGCAUGCCGCCGGGCGCCAUGCCUGCAGGUCGACUCUAGAAAACAUG”, the binding signal (log2 enrichment (interaction score)) is 0.63 in [11]; under -7.89 in assay [12]; -2.17 in assay [13]; -3.43 in assay [14]; under -8.28 in assay [15]; -0.34 in assay [16]. Besides, the binding signal (log2 enrichment (interaction score)) in assay [17] was 0.09; in [18] it was -2.75; in assay [19] it was -0.24; in assay [20], -2.14.
For “GGCUAGAACUAGUGGAUCCCCCGGCGCCCGGCGGCUCGAGCCCGGGUAAGUGUAAGUAGUCUGCAUGCCGCCGGGCGCCAUGCCUGCAGGUCGACUCUAGAAAACAUG”, the binding signal (log2 enrichment (interaction score)) is -1.88 in assay [11]; under -8.15 in [12]; under -8.1 in assay [13]; under -10.1 in assay [14]; under -8.07 in assay [15]; 0.09 in assay [16]. In addition, the binding signal (log2 enrichment (interaction score)) is -0.22 in assay [17], -6.99 in [18], -1.7 in assay [19] and -5.08 in [20].
“GGCUAGAACUAGUGGAUCCCCCGGCGCCCGGCGGCUCGAGCCCGGGUAAGUGCAAAUAGUCUGCAUGCCGCCGGGCGCCAUGCCUGCAGGUCGACUCUAGAAAACAUG”: the binding signal (log2 enrichment (interaction score)) in assay [1] was -5.03; in assay [2] it was under -8.05; in assay [3], -6.72; in [4] it was -3.31; in [5], -3.96; in assay [6] it was -4.97. Further, the binding signal (log2 enrichment (interaction score)) in assay [7] was -1.25; in assay [8], -4.14; in [9], under -7.6; in assay [10], -1.46.

These data come from publication PMC8384837.
